Measurements as given in the supplement of paper PMC5770031.
The other results are listed elsewhere or left out. Repeats in this data set agree poorly, so a single value says little.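 Flies heterozygous for the ATM8 allele over a balancer chromosome carrying normal ATM were mated with each other on treated food. Parents laid eggs for 5–6 days and the young then developed for about 12 days, so both parents and larvae ate the compound. The read-out is the share of all emerged adults that carry two ATM8 copies, compared with 2% DMSO control vials. The paper called compounds neutral at 10–20% such offspring, harmful below 10%, and helpful above 20%.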

These compounds were tested on Drosophila melanogaster ATM8 (temperature-sensitive ATM allele) (assay: fraction of eclosed F1 progeny that are homozygous ATM8 (rescue of developmental lethality); higher = more rescue of ATM8 developmental lethality; extreme values may be limits of the assay). Conditions: compound concentration applied to food 0.2 mM; 21 °C.

Row | SMILES | fraction of eclosed F1 progeny that are homozygous ATM8
1 | CC(=O)OC1CCC2(C)C3=C(CC[C@H]2C1(C)C)[C@@]1(C)CC[C@@H]([C@@H](C)CCC=C(C)C)[C@]1(C)CC3 (some centres not stated) | 0.146
2 | CC(=O)OCC1=C(C(=O)O)N2C(=O)[C@@H](NC(=O)CSc3ccncc3)[C@H]2SC1 | 0.025
3 | O=C1OC2(c3ccc(O)cc3Oc3cc(O)ccc32)c2ccccc21 | 0.186
4 | CC[C@H]1OC(=O)[C@H](C)C(=O)[C@H](C)[C@@H](O[C@@H]2O[C@H](C)C[C@H](N(C)C)[C@H]2O)[C@](C)(OC)C[C@@H](C)C(=O)[C@H](C)[C@H]2N(CCCCn3cnc(-c4cccnc4)c3)C(=O)O[C@]12C | 0.294
5 | CCCCOc1cc(C(=O)NCCN(CC)CC)c2ccccc2n1 | 0.0488
6 | COc1cc(OC)c2c(c1)OC(c1ccccc1)CC2=O (configuration not stated) | 0.0714
7 | O=C1CCc2cc(OCCCCc3nnnn3C3CCCCC3)ccc2N1 | 0.4
8 | CCS(=O)(=O)CCn1c([N+](=O)[O-])cnc1C | 0.268
9 | CCC1=C(C)CN(C(=O)NCCc2ccc(S(=O)(=O)NC(=O)N[C@H]3CC[C@H](C)CC3)cc2)C1=O | 0.279
10 | C[C@@]12C[C@@]3(O)O[C@@H](O1)[C@]1(COC(=O)c4ccccc4)[C@H]3C[C@@]12O[C@@H]1O[C@H](CO)[C@@H](O)[C@H](O)[C@H]1O | 0.257
11 | Sc1nc2ccccc2s1 | 0.108
12 | CCOCCOc1ccccc1C(N)=O | 0.152
13 | COc1ccc2cc1Oc1ccc(cc1)C[C@H]1c3cc(c(OC)cc3CCN1C)Oc1c(OC)c(OC)cc3c1[C@H](C2)N(C)CC3 | 0
14 | COC(=O)C[C@H]1C(C)(C)C(=O)[C@@H]2CC3=C4CC(=O)O[C@@H](c5ccoc5)[C@]4(C)CC[C@@H]3[C@@]1(C)C2=O | 0
15 | CC(=O)N[C@@H]([C@@H](O)[C@H](O)[C@H](O)CO)[C@@H](O)CC(=O)C(=O)O | 0.136
16 | CC1CC(Cl)CCC1C(=O)OC(C)(C)C (configuration not stated) | 0.164
17 | CCCCCCc1ccc(O)cc1O | 0.0732
18 | CC1(C)NC(=O)N(c2ccc([N+](=O)[O-])c(C(F)(F)F)c2)C1=O | 0.167
19 | CC(C)(c1ccc(O)cc1)c1ccc(O)cc1 | 0.158
20 | C=C(C)[C@@H]1CC=C(C(=O)O)CC1 | 0.0606
21 | COC(=O)[C@@H]1[C@H]2C[C@H]3c4[nH]c5ccccc5c4CCN3C[C@@H]2CC[C@@H]1O | 0.207
22 | C[C@]12C=CC(=O)C=C1CC[C@@H]1[C@@H]2[C@@H](O)C[C@@]2(C)[C@H]1CC[C@]2(O)C(=O)COC(=O)CCC(=O)O | 0.0256
23 | O=C(O)c1cc(-c2ccc(F)cc2F)ccc1O | 0.0769
24 | COc1ccccc1N1CCNCC1 | 0.05
25 | CCCCNC(=O)NS(=O)(=O)c1ccc(C)cc1 | 0.122
26 | COC(=O)c1c(C)cc(O)cc1O | 0.038

2 entries drawn at random from the list so far, as already listed:
Row | SMILES | fraction of eclosed F1 progeny that are homozygous ATM8
23 | O=C(O)c1cc(-c2ccc(F)cc2F)ccc1O | 0.0769
20 | C=C(C)[C@@H]1CC=C(C(=O)O)CC1 | 0.0606

(continued)

Row | SMILES | fraction of eclosed F1 progeny that are homozygous ATM8
27 | CCOC(=O)OC(C)OC1=C(C(=O)Nc2ccccn2)N(C)S(=O)(=O)c2ccccc21 (configuration not stated) | 0.2
28 | CC(=O)[C@H]1CC[C@H]2[C@@H]3C[C@H](C)C4=CC(=O)CC[C@]4(C)[C@H]3[C@@H](O)C[C@]12C | 0.0312
29 | CCn1cc(C(=O)O)c(=O)c2cnc(N3CCCC3)nc21 | 0.116
30 | O=S(=O)(O)CCS | 0.0909
31 | CCCCCCCCCCCCC[N+](C)(C)Cc1ccccc1 | 0.0645
32 | CC(C)(C)NC[C@H](O)c1ccc(O)c(CO)c1 | 0.238
33 | CCOc1cc(C=O)ccc1O | 0.145
34 | CC(C)Nc1ncccn1 | 0.0682
35 | COc1ccc(C(=O)/C=C/c2ccccc2)cc1 | 0.0392
36 | C1CCN2C[C@@H]3C[C@H](CN4CCCC[C@@H]34)[C@H]2C1 | 0.107
37 | CC(=O)OCC(=O)[C@@]12N=C(C)O[C@@H]1C[C@H]1[C@@H]3CCC4=CC(=O)C=C[C@]4(C)[C@H]3[C@@H](O)C[C@@]12C | 0.0606
38 | CC(=O)Nc1ccc(CC(=O)O)cc1 | 0.122
39 | Cc1nc2n(c(=O)c1CCN1CCC(c3noc4cc(F)ccc34)CC1)CCCC2 | 0.156
40 | C=C1C[C@@H]2[C@H](CC[C@]3(C)C(=O)CC[C@@H]23)[C@@]2(C)C=CC(=O)C=C12 | 0
41 | CCN1CC(CCN2CCOCC2)C(c2ccccc2)(c2ccccc2)C1=O (configuration not stated) | 0
42 | C=C1C(=O)O[C@@H]2C[C@@]3(C)CCC[C@H](C)C3=C[C@H]12 | 0.178
43 | O=C(O)CCCCCCCCCCCC(=O)O | 0.175
44 | CCCCCCCCCCCCCCCC[n+]1ccccc1 | 0.0682
45 | N[C@@H](C(=O)N[C@@H]1C(=O)N2C(C(=O)O)=C(Cl)CS[C@H]12)c1ccccc1 | 0.0889
46 | C=CCC1(C(C)CCC)C(=O)NC(=S)NC1=O (configuration not stated) | 0.192
47 | COc1ccc(C(=O)NCc2ccc(OCCN(C)C)cc2)cc1OC | 0.102
48 | COc1ccc(-c2cc(C(F)F)nn2-c2ccc(S(N)(=O)=O)cc2)cc1F | 0.256
49 | C[C@@H]1CC[C@@]2(OC1)O[C@H]1C[C@H]3[C@@H]4CC[C@@H]5C[C@@H](O)CC[C@]5(C)[C@H]4CC[C@]3(C)[C@H]1[C@@H]2C | 0.0625
50 | OC[C@H]1O[C@@H](O[C@@H]2[C@@H](CO)OC(O)(CO)[C@H]2O)[C@H](O)[C@@H](O)[C@H]1O (mixture of isomers) | 0.118
51 | c1ccc(/N=N/c2ccccc2)cc1 | 0
52 | CN(C)[C@@H]1C(O)=C(C(N)=O)C(=O)[C@@]2(O)C(O)=C3C(=O)c4c(O)ccc(Cl)c4[C@@H](O)[C@H]3C[C@@H]12 | 0

Of the compounds above, four contain fluorine.
Row | SMILES | fraction of eclosed F1 progeny that are homozygous ATM8
18 | CC1(C)NC(=O)N(c2ccc([N+](=O)[O-])c(C(F)(F)F)c2)C1=O | 0.167
23 | O=C(O)c1cc(-c2ccc(F)cc2F)ccc1O | 0.0769
39 | Cc1nc2n(c(=O)c1CCN1CCC(c3noc4cc(F)ccc34)CC1)CCCC2 | 0.156
48 | COc1ccc(-c2cc(C(F)F)nn2-c2ccc(S(N)(=O)=O)cc2)cc1F | 0.256

The list goes on:

Row | SMILES | fraction of eclosed F1 progeny that are homozygous ATM8
53 | NC(N)=O | 0.0638
54 | COC(=O)[C@@H]1OC(=O)C2OC23[C@@]1(C)CCC1[C@@]2(C)CCC(=O)C(C)(C)C2C[C@@H](OC(C)=O)[C@]13C (some centres not stated) | 0.17
55 | Cn1c([N+](=O)[O-])cnc1COC(N)=O | 0.0465
56 | CC(=O)O[C@@H]1CC[C@@]2(C)[C@@H](CC[C@@H]3[C@@H]2CC[C@]2(C)C(=O)CC[C@@H]32)C1 | 0.0408
57 | O=C(CC(=O)c1ccccc1)c1ccccc1 | 0.108
58 | Nc1cc(-c2ccncc2)c[nH]c1=O | 0.127
59 | C[C@H]1C[C@@H]2[C@H]([C@@H](O)C[C@@]3(C)[C@H]2CC[C@]3(O)C(=O)COC(=O)CCC(=O)O)[C@@]2(C)C=CC(=O)C=C12 | 0.0569
60 | COC(=O)C(N)CS (configuration not stated) | 0.0926
61 | CC(N)C12CC3CC(CC(C3)C1)C2 (configuration not stated) | 0
62 | Cc1cc(O)c(C=O)c2c1C(=O)Oc1c(COC(=O)/C=C/C(=O)O)c(O)c(C(=O)O)c(C)c1O2 | 0.0741
63 | O=C1CC(c2ccc(O)cc2)Oc2ccccc21 (configuration not stated) | 0.0952
64 | CN(C)CCOC(=O)COc1ccc(Cl)cc1 | 0.136
65 | CCCc1nc(C(C)(C)O)c(C(=O)O)n1Cc1ccc(-c2ccccc2-c2nnn[nH]2)cc1 | 0.325
66 | O=C(OCc1ccccc1)c1ccccc1 | 0.0556
67 | OC(CCN1CCCCC1)(c1ccccc1)C1CCCCC1 (configuration not stated) | 0.0882
68 | Cc1ccc2c(Cl)cc(Cl)c(O)c2n1 | 0.0789
69 | N=C(N)N/N=C/c1c(Cl)cccc1Cl | 0.316
70 | COc1ccc2[nH]c([S+]([O-])Cc3ncc(C)c(OC)c3C)nc2c1 (configuration not stated) | 0
71 | NCCCC(N)C(=O)O (configuration not stated) | 0.111
72 | c1ccc2c(c1)sc1ccccc12 | 0.093
73 | O=P1(N(CCCl)CCCl)NCCCO1 (configuration not stated) | 0.0278
74 | CC(=O)Oc1c(C)c(C)c2c(c1C)CCC(C)(CCCC(C)CCCC(C)CCCC(C)C)O2 (stereo not drawn) [alpha-TOCHOPHERYL ACETATE [4mM]] | 0.0185
75 | CC(=O)Nc1ccc(O)cc1 | 0.127
76 | O=C(O)c1cc(O)c(=O)c2c(O)c(O)ccc2c1 | 0.255
77 | O=S(=O)(O)CCCS(=O)(=O)O | 0.196
78 | C=CCSCC(N)C(=O)O (configuration not stated) | 0.163

Row | SMILES | fraction of eclosed F1 progeny that are homozygous ATM8
79 | COc1ccc2c(c1)OCC(Cc1ccc(OC)c(OC(C)=O)c1)C2=O (configuration not stated) | 0.216
80 | CN1C(=O)CCS(=O)(=O)C1c1ccc(Cl)cc1 (configuration not stated) | 0.194
81 | CC(=O)O[C@H]1C[C@@H](OC(C)=O)C(C)(C)C2C[C@@H](O)[C@]3(C)C(CC[C@@]4(C)[C@H](c5ccoc5)OC(=O)[C@H]5O[C@]543)[C@]21C (some centres not stated) | 0.152
82 | OCCOCCN1CCN(C(c2ccccc2)c2ccc(Cl)cc2)CC1 (configuration not stated) | 0.236
83 | Cc1ccccc1N1C(=O)c2cc(S(N)(=O)=O)c(Cl)cc2NC1C (configuration not stated) | 0.107
84 | Cc1cc(-n2c(=O)[nH]c(=O)n(C)c2=O)ccc1Oc1ccc(SC(F)(F)F)cc1 | 0.0286
85 | CC(C)COC(=O)c1ccc(N)cc1 | 0.103
86 | COc1ccc(C(=O)c2ccc(O)cc2)c(O)c1O | 0.186
87 | COc1ccc(-c2coc3c(OC)c(OC)cc(O)c3c2=O)cc1 | 0.151
88 | O=C(NC(O)C(Cl)(Cl)Cl)NC(O)C(Cl)(Cl)Cl (configuration not stated) | 0.0625
89 | CC(Oc1c(Cl)cccc1Cl)C1=NCCN1 (configuration not stated) | 0
90 | CC1=C(CC(=O)O)c2cc(F)ccc2/C1=C\c1ccc([S+](C)[O-])cc1 (configuration not stated) | 0.133
91 | CC(=O)NC1CCSC1=O (configuration not stated) | 0.273
92 | CCOc1ccc(C(=O)c2ccc(O)c(O)c2O)cc1 | 0.0727
93 | C[C@]12CC[C@@H]3c4ccc(O)cc4CC[C@H]3[C@@H]1C[C@@H](O)[C@@H]2O | 0.0222
94 | Cc1cccc2c3c(ccc12)C1=C(C(=O)C3=O)[C@@H](C)CO1 | 0.228
95 | Cc1noc(NS(=O)(=O)c2ccc(N)cc2)c1C | 0.233
96 | CCc1cccc2c3c([nH]c12)C(CC)(CC(=O)O)OCC3 (configuration not stated) | 0.152
97 | CCCCC(=O)O[C@]1(C(=O)CO)CC[C@H]2[C@@H]3CCC4=CC(=O)CC[C@]4(C)[C@H]3[C@@H](O)C[C@@]21C | 0.0323
98 | CC(=O)N[C@@H](Cc1ccccc1)C(=O)O | 0.13
99 | CO/N=C(\C(=O)N[C@@H]1C(=O)N2C(C(=O)O)=C(C[N+]3(C)CCCC3)CS[C@H]12)c1csc(N)n1 | 0.154
100 | CCOC(=O)[C@H](CCc1ccccc1)N[C@@H](C)C(=O)N1CCC[C@H]1C(=O)O | 0.143
101 | CC(=O)Oc1ccc2c(c1)CC[C@@H]1[C@@H]2CC[C@@]2(C)[C@H]1C[C@@H](OC(C)=O)[C@@H]2OC(C)=O | 0
102 | Cn1nnnc1SCC1=C(C(=O)O)N2C(=O)[C@@H](NC(=O)[C@H](OC=O)c3ccccc3)[C@H]2SC1 | 0.171
